# Measurements as given in PubChem BioAssay (EPA / NIEHS).
# The chains behind the UniProt entries cited, without tags or fusion partners. Where a name states a change or a piece, a line headed by the entry shows the natural chain unless it says otherwise.
# UniProt P22303: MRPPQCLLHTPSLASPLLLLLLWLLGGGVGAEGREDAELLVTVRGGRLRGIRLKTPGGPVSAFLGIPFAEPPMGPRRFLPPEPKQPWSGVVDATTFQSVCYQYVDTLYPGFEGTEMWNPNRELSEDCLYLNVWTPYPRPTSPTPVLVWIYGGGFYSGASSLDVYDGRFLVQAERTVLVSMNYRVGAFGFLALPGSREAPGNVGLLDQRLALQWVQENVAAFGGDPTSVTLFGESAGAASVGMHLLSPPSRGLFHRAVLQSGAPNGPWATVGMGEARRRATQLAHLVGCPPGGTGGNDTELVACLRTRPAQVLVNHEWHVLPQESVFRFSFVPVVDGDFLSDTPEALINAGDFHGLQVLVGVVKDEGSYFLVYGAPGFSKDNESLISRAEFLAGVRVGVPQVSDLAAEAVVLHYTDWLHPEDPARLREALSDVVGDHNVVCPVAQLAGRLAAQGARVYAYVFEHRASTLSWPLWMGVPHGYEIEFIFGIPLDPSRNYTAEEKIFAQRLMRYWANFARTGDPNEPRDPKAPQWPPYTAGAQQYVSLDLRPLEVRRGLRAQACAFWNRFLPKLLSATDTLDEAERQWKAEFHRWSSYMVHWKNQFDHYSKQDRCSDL
# Inconclusive results, whose numbers are uncertain, are shown with a selection of clear calls. Potencies beside an inconclusive call are fits to weak or partial responses and may not hold up. Activity calls are given as the source filed them. How the source made its calls: active means hit-call score of the fitted dose curve at least 0.9, where 1 is the maximum; inconclusive means response in the unintended direction; inactive means score below 0.9.
# Molecular target: human Acetylcholinesterase (AChE), ACHE (gene 43) (UniProt P22303)
# Experiment: NVS_ENZ_hAChE: NovaScreen (NVS) Enzymatic Assay for human Acetylcholinesterase (AChE) (AID 2283129)
# Method: NVS_ENZ_hAChE is a biochemical, single-readout assay that uses extracted gene-proteins in a cell-free assay. Measurements were taken 0.33 hour after chemical dosing in a 96-well plate.NVS_ENZ_hAChE is one of one assay component(s) measured or calculated from the NVS_ENZ_hAChE assay. It is designed to make measurements of enzyme activity, a form of enzyme reporter, as detected with absorbance signals by Colorimetric technology.Data from the assay component NVS_ENZ_hAChE was analyzed into 1 assay endpoint. This assay endpoint, NVS_ENZ_hAChE, was analyzed in the positive analysis fitting direction relative to DMSO as the negative control and baseline of activity. Using a type of enzyme reporter, loss-of-signal activity can be used to understand changes in the enzymatic activity as they relate to the gene ACHE. Furthermore, this assay endpoint can be referred to as a primary readout, because this assay has produced multiple assay endpoints where this one serves a enzymatic activity function. To generalize the intended target to other relatable targets, this assay endpoint is annotated to the esterase intended target family, where the subfamily is acetylcholinesterase.
# Binding assays used specific radioligands (tritiated, iodinated) with non-radioactive competitive displacement ligands in agonist or antagonist protocols (as indicated) and various reference compounds and inhibitors to titrate specific binding to receptors and transporters. Most enzyme assays (CYPs, kinases, phosphatases, proteases, HDACs) used recombinant protein and specific substrates (fluorescence mostly, some colorimetric and radioactive) and inhibitors, followed by a biochemical separation of substrate and product. All assays for the biochemical HTS were initially run in duplicate at a single concentration (10 uM for CYP450 assays and 25 uM for all others). […] Each assay was run with positive and negative controls, and concurrent controls on every plate. The follow-up (secondary) screen tested active chemical-pairs in concentration series, as well as a few additional assays not tested in the primary screen, some selected negative inactives, and several cases re-run in the concentration series for confirmatory purposes.
SMILES,AC50,outcome
CN(C)C(=S)SSC(=S)N(C)C,active: 10.6 µM,
C[C@]12CCC(=O)C=C1CC[C@@H]1[C@@H]2CC[C@]2(C)C(=O)CC[C@@H]12,,inactive
OC(c1ccc(Cl)cc1)(c1ccc(Cl)cc1)C(Cl)(Cl)Cl,inconclusive: 35.6 µM,
CNC(=O)ON=C(SC)C(=O)N(C)C,active: 12 µM,
CNC(=S)S,active: 39.9 µM,
CC(C)(C)C(O)C(Oc1ccc(Cl)cc1)n1cncn1 (stereo not drawn),inconclusive: 7.22 µM,
O=[N+]([O-])c1cc(C(F)(F)F)c(Cl)c([N+](=O)[O-])c1Nc1ncc(C(F)(F)F)cc1Cl,inconclusive: 5.99 µM,
Nc1c(Cl)c(Cl)nc(C(=O)O)c1Cl,inconclusive: 6.09 µM,
CNC(=O)Oc1cccc(N=CN(C)C)c1,inconclusive: 21.5 µM,
O=[N+]([O-])c1ccc(Oc2ccc(Cl)cc2Cl)cc1,inconclusive: 25 µM,
C#CCOS(=O)OC1CCCCC1Oc1ccc(C(C)(C)C)cc1 (stereo not drawn),inconclusive: 0.232 µM,
COP(=O)(OC)SCn1c(=O)oc2cc(Cl)cnc21,active: 6.65 µM,
CSC(C)(C)C=NO,inconclusive: 0.0554 µM,
CCSC(=O)N(CC)C1CCCCC1,inconclusive: 45.1 µM,
O=C(O)CCCOc1ccc(Cl)cc1Cl,inconclusive: 45 µM,
CCCCN(CCCC)SN(C)C(=O)Oc1cccc2c1OC(C)(C)C2,active: 1.31 µM,
CN1CSC(=S)N(C)C1,inconclusive: 23.7 µM,
CCCCNC(=O)OCC#CI,inconclusive: 25 µM,

# No new results follow: entries from further up.
SMILES,AC50,outcome
O=[N+]([O-])c1cc(C(F)(F)F)c(Cl)c([N+](=O)[O-])c1Nc1ncc(C(F)(F)F)cc1Cl,inconclusive: 5.99 µM,
Nc1c(Cl)c(Cl)nc(C(=O)O)c1Cl,inconclusive: 6.09 µM,
